## Results of single-concentration screens

Measurements from “University of Dundee, Small-Polar-MMV Screening Library” (2021), ChEMBL document CHEMBL3988442.

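Phenotypic screen: M. tuberculosis growth, glucose 7H9 medium, 3 days; the read-out is not stated. Tested at 500 µM. The record gives no direction; compounds that gave an IC50 in retests scored well above the rest, so higher reads as more growth inhibition. About 18,000 compounds were tested under these conditions; 7.9% (about 1,400) showed 50% or more at least once.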

Each number is a percent effect as filed. The controls that fix the scale are not given in the record; negative values are as filed. The compounds are a random part of those screened.

N#Cc1c(NC(=O)c2ccncc2)sc2c1CCC2 gave -19.21%. For O=C1NCCc2c(F)cc(Br)cc21 the result was 32.01%. CC(C)N1CCN(CCCn2ccnc2C#N)CC1 read -0.3405%. With Cc1cc(NC(=O)NCCN2CCCCC2C)no1 (centres unmarked) the screen gave -5.211%. For Cc1nc(C(N)c2ccc(Cl)c(F)c2)no1 (centres unmarked) the result was 31.25%.

COCc1c(Br)cccc1NC(=O)CNC(=O)C1CC1 gave 28.02%. For CN(C)C(=O)Nc1ccc(N2CCOCC2)nc1 the result was -44.1%. Result for CC(OCC(F)(F)F)C(=O)Nc1cnn(C)c1 (centres unmarked) was 5.528%. Nc1nc(C(F)(F)F)ns1 read 4.315%. With O=C(NCCNS(=O)(=O)Cc1ccccc1)C1CCC1 the screen gave 18.09%.

For CCc1cccc(CN)c1 the result was 2%. For CN(C)c1cc(CNC(=O)C2(C)CCCO2)ccn1 (centres unmarked) the result was 29.44%. Result for NCCc1ccc(OCC(F)(F)F)nc1 was 57.44%. O=C(CCNC(=O)c1ccoc1)Nc1ccc(Cl)cn1 gave 19.79%. CC(=O)NCCNC(=O)CSCc1cccc(Cl)c1 gave 33.6%.

For CNC(=O)[C@@H](C)NC(=O)c1ccc(-c2ccc(C)o2)s1 the result was 67.9%. CSCCN1CCN(C(=O)c2cnc[nH]2)CC1 read -0.6868%. CC(NC(=O)c1ccco1)C(=O)Nc1ncccc1Br (centres unmarked) gave 12.93%. Result for CC(CCn1cccn1)NCC1(O)CCOCC1 (centres unmarked) was -1.008%. CCc1nccn1CCC(=O)N1CCOCC(O)C1 (centres unmarked) gave -4.004%.

For O=C(NC1CCCc2[nH]c(=O)ccc21)c1cc(Br)c[nH]1 (centres unmarked) the result was 22.3%. For CNC(C)(C)CCO the result was 1.654%. CCOCC(=O)N1CCN(C)Cc2ccccc21 gave 6.219%. O=C(CC1COCCN1CC1CCC1)c1ccco1 (centres unmarked) gave 46.21%. Result for COCc1nn(Cc2cccc(C#N)c2)c(=O)o1 was 40.56%.

OC(c1cc(F)ccc1F)C1CCNCC1 (centres unmarked) read 28.32%. Cc1cc(N2CCCC2)nc(C)n1 read 8.307%. CC(CCCO)NS(=O)(=O)c1ccccc1 (centres unmarked) read 23.79%. With O=C(CCc1ccccc1)N1CC(c2cccnc2)C1 the screen gave 65.55%. Result for COc1ccc(NCC(=O)N2CCNC2=O)cc1Cl was 5.862%.

With O=C(Cc1cccs1)NCC1CCCCC(=O)N1 (centres unmarked) the screen gave 5.062%. Result for O=C1CN(CC(=O)N2CCCCCC2)CCN1 was -11.39%. With N#CCCOc1ccccc1 the screen gave 12.26%. Result for CC(c1ccccc1F)N1CC(=O)N(C)C1 (centres unmarked) was 4.149%. CS(=O)(=O)NCCSCC(O)c1ccccc1 (centres unmarked) gave 17.27%.

CC(c1ccncc1)N(C)Cc1ccc(CO)o1 (centres unmarked) gave -9.01%. Result for Cc1cc(CN2CCC[C@H]2C(=O)N2CCOCC2)on1 was 2.358%. CCCc1cc(C(=O)N2CCOC(C(F)(F)F)C2)no1 (centres unmarked) gave 5.652%. Result for Cn1cc(CNCCNC(=O)c2cccs2)cn1 was 6.289%. For O=C1C(NCc2cscn2)CCCN1c1cccnc1 (centres unmarked) the result was 5.613%.

With CN1N=C(C(=O)NCC2CCOC2)CCC1=O (centres unmarked) the screen gave 3.835%. Result for CCn1c(N)nc2cc(CO)ccc21 was 2.079%. Cc1cc(C)cc(NC(=O)CCN2CCN(C)CC2)c1 read 35.19%. COc1ccc(CN(C)CC2CCOCC2)cn1 gave -21.29%. CCCS(=O)(=O)NCCN1CCOC(C)(C)C1 gave 4.246%.

With CN(Cc1ccsc1)C(=O)c1nccnc1N the screen gave 20.96%. For CSCC(C)(O)CNc1nnnn1-c1ccccc1 (centres unmarked) the result was 63.03%. CC(NC(=O)c1n[nH]c2c1CCC2)c1n[nH]c(=O)[nH]1 (centres unmarked) gave 14.51%. Result for Cc1nn(CCO)c(C)c1CNC(C)Cn1cccn1 (centres unmarked) was -13.49%. For CC1=NOC(C)(CNS(=O)(=O)c2ccc(F)cc2)C1 (centres unmarked) the result was 22.38%.

For Cc1cc(=O)cc(C(=O)NCCC(C)n2ccnc2)o1 (centres unmarked) the result was -2.764%. With CN(CCc1ccccc1)CCS(=O)(=O)CCC(N)=O the screen gave 86.91%. Result for COc1cccn(CC(=O)N2CCN(C)CC2)c1=O was 4.799%.

Once more, the final 3:

compound	percent effect
Cc1cc(=O)cc(C(=O)NCCC(C)n2ccnc2)o1 (centres unmarked)	-2.764
CN(CCc1ccccc1)CCS(=O)(=O)CCC(N)=O	86.91
COc1cccn(CC(=O)N2CCN(C)CC2)c1=O	4.799